Results are given in words; binding and its absence hold for the method and conditions named. In cells and extracts the contact can be indirect. Some binding calls cover weakened binding; strength is not graded here.

The chains behind the UniProt entries cited, without tags or fusion partners. Residues count along the entry.
UniProt P98088, residues 28-5654: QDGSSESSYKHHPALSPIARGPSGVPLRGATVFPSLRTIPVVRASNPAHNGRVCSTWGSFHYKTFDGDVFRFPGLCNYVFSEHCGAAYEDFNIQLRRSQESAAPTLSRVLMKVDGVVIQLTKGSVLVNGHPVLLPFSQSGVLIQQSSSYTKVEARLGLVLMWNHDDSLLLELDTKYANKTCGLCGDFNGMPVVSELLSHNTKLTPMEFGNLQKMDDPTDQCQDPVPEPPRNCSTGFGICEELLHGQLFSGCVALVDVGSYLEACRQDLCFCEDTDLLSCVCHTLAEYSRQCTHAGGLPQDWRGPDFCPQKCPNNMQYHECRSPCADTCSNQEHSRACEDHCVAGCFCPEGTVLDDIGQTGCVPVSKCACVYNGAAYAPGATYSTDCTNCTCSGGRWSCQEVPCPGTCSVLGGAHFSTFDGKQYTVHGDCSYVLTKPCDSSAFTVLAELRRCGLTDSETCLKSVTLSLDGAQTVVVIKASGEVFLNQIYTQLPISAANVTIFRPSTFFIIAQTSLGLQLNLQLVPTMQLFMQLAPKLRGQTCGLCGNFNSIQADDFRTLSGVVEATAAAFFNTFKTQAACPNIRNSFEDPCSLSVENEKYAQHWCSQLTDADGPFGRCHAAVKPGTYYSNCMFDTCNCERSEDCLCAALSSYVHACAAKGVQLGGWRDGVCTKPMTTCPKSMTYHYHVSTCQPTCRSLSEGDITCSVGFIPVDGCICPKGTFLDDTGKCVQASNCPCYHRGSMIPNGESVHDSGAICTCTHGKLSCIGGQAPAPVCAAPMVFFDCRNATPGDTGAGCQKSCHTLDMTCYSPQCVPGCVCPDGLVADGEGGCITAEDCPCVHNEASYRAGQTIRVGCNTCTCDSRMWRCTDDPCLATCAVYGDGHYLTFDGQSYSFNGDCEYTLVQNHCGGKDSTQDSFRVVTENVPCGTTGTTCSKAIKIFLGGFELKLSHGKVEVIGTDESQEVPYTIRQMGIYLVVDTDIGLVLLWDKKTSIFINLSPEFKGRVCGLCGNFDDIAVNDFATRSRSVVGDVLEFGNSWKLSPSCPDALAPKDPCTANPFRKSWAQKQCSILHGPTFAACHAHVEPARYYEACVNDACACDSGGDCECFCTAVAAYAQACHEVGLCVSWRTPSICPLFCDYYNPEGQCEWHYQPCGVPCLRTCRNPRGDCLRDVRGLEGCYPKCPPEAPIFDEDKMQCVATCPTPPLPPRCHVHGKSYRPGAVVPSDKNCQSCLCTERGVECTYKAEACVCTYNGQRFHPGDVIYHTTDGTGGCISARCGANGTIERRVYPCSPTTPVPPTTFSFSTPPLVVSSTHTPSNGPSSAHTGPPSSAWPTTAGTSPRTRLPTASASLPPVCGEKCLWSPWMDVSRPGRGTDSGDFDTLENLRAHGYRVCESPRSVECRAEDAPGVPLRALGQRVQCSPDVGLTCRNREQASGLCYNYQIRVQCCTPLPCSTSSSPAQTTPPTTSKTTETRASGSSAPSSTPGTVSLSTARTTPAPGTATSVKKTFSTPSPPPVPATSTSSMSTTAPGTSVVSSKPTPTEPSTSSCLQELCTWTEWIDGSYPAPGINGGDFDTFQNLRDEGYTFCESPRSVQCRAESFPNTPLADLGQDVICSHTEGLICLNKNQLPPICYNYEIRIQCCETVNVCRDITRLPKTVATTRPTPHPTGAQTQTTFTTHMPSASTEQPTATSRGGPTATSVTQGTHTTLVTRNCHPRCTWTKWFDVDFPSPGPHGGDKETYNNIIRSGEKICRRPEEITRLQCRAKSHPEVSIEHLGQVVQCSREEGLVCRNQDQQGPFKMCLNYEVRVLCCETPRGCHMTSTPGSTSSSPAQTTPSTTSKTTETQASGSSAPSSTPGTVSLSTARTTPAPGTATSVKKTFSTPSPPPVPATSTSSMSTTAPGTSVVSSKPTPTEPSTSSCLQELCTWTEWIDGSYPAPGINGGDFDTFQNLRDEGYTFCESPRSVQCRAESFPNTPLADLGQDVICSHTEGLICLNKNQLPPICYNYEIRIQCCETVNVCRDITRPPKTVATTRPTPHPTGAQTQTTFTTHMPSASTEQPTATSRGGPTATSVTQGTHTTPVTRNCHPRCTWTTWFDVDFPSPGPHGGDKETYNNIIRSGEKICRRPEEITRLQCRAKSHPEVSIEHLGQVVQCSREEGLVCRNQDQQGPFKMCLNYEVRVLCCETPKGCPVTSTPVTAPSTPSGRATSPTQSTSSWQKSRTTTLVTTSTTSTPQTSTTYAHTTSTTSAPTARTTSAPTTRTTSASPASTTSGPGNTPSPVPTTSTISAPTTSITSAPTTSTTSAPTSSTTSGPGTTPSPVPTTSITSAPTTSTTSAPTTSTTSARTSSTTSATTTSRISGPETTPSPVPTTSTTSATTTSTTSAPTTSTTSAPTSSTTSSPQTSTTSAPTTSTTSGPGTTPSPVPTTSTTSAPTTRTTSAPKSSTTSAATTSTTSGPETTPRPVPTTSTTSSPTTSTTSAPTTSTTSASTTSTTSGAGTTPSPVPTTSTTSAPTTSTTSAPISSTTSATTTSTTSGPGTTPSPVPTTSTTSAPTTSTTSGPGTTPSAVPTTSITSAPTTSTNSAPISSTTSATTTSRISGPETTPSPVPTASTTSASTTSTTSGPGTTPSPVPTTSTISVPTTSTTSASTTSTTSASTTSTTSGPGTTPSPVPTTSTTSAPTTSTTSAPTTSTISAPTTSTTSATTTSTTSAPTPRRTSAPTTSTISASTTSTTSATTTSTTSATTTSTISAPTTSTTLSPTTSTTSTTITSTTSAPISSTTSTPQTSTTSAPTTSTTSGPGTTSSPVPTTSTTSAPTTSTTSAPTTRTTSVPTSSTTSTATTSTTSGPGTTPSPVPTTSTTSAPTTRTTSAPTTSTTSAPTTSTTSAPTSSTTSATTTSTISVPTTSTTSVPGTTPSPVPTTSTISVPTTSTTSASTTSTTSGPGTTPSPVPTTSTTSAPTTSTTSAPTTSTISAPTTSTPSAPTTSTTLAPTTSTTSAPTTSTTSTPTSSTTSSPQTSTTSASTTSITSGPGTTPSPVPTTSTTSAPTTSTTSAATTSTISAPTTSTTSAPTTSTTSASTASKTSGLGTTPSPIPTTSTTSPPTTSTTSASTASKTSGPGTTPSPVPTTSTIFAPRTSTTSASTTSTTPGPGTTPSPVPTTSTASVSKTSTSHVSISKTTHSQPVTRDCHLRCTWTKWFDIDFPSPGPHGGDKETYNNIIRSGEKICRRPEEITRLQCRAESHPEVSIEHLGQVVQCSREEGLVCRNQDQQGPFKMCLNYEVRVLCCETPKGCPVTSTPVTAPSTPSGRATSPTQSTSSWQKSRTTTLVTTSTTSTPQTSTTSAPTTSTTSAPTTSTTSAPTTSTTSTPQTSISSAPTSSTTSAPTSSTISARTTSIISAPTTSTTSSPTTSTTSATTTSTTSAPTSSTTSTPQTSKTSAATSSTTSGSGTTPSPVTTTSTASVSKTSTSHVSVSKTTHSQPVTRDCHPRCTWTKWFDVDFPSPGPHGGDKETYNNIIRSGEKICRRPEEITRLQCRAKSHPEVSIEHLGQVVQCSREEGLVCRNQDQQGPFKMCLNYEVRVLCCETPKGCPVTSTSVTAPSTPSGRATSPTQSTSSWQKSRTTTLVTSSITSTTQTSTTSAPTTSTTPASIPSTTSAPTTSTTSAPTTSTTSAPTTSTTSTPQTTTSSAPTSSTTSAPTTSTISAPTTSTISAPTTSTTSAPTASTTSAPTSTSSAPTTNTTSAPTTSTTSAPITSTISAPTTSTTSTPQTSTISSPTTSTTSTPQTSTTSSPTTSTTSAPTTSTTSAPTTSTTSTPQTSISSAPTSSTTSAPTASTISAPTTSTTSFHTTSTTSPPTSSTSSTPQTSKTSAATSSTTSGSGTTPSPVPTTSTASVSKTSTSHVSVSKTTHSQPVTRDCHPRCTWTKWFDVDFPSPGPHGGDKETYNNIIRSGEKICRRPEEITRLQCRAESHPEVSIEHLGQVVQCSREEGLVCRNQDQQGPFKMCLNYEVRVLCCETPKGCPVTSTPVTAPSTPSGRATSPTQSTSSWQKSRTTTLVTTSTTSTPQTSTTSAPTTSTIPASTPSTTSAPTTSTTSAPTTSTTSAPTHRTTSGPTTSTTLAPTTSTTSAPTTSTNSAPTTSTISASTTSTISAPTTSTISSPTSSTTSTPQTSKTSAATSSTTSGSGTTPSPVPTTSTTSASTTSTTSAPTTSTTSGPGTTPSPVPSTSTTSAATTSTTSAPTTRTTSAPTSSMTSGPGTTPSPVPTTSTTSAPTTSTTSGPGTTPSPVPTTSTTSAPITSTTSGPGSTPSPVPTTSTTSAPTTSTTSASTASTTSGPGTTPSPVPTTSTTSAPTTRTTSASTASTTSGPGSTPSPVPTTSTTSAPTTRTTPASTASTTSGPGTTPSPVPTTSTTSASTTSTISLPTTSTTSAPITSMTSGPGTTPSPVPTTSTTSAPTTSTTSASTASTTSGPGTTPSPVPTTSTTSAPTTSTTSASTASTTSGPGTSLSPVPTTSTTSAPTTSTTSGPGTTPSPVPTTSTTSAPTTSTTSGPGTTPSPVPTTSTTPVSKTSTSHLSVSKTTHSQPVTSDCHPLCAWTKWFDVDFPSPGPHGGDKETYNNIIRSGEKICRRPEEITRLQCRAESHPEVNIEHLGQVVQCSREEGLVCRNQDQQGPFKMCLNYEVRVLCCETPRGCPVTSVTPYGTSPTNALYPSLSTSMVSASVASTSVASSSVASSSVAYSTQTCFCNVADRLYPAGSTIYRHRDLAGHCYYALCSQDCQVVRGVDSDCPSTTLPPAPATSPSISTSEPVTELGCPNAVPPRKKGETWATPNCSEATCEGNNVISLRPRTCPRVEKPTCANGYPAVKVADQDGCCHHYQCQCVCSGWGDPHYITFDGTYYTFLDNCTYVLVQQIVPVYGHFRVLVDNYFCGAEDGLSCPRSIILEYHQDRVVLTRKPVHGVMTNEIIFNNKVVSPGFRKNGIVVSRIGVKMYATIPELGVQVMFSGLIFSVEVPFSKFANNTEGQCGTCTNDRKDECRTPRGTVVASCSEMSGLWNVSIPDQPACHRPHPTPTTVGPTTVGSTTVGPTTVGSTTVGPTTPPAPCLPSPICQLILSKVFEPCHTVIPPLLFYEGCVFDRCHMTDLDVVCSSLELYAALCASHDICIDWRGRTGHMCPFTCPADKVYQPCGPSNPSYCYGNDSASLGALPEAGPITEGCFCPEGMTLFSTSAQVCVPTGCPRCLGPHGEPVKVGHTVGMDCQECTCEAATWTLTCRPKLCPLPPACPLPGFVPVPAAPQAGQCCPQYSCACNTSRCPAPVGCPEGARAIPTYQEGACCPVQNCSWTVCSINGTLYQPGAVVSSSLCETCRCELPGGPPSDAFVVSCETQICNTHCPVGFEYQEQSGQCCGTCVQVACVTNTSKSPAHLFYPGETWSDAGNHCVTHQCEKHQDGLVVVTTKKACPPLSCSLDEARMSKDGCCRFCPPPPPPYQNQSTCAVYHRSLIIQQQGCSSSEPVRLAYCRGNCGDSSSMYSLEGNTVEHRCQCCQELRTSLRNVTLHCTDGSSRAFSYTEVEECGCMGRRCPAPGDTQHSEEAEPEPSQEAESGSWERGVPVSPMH
UniProt P07355: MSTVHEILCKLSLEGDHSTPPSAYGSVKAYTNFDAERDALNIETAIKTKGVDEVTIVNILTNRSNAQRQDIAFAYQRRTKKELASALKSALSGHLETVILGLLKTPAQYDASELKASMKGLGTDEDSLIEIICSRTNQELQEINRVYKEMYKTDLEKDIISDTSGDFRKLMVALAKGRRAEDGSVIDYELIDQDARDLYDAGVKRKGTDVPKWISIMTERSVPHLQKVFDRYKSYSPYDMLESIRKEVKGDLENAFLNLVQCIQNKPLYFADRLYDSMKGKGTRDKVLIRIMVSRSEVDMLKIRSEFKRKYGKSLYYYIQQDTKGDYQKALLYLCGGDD

The experiment has as its target Mucin 5ac (MUC5AC) (human (endogenous in A549-BrM)) (UniProt P98088). The experiment in a line: co-IP; IP and reciprocal IP from 500 ug lysate of A549-BrM.scr and A549-BrM5AC.sh1 cells, overnight with anti-MUC5AC (CLH2) or anti-ANXA2 antibody (2 ug), Protein A/G agarose beads 4 h at 4 °C; 2% SDS agarose gel and blot.

On to “Annexin A2 (ANXA2) (from UniProt P07355 1-339)”, for which the binding entry is listed as “binds”.

(Values after article PMC11263355.)
